Measurements published in the supplement of paper PMC7052299.
The list shows a part of the results. Most values come without repeats; read them as rough.

Tested on: Danio rerio embryo (th-expressing DA/NA neurons)
Assay: percentage of embryos with altered th expression (decrease or increase vs DMSO control) in brain region; higher = more embryos with altered dopaminergic/noradrenergic marker expression; extreme values may be limits of the assay
Details: treatment window: 24-72 hpf, fixed 96 hpf
Description: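 Primary screen in zebrafish embryos (AB/TL). Embryos were treated with each compound at 1, 3, 10 or 30 µM in E3/PTU with 1% DMSO from 24 to 72 hpf, washed out, and fixed at 96 hpf. th (tyrosine hydroxylase) expression was scored by whole-mount in situ hybridization per DA/NA brain region (strong decrease, decrease, normal, increase, strong increase), with 7-16 embryos per treatment and no independent replicates. The value is the percentage of scored embryos whose th expression was altered (decrease or increase) relative to DMSO controls.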

Measured: percentage of embryos with altered th expression

N[C@@H]1C[C@H]1c1ccccc1.N[C@H]1C[C@@H]1c1ccccc1 [Tranylcypromine]
100%: 10 µM, brain region: MO
0%: 1 µM, brain region: telencephalon | 3 µM, brain region: DC1 | 3 µM, brain region: DC2 | 3 µM, brain region: DC3 | 3 µM, brain region: DC 4,5,6 | 3 µM, brain region: LC | 3 µM, brain region: MO | 3 µM, brain region: Pretectum | 3 µM, brain region: telencephalon | 10 µM, brain region: DC1 | 10 µM, brain region: DC2 | 10 µM, brain region: DC3 | 10 µM, brain region: LC | 10 µM, brain region: Pretectum | 10 µM, brain region: telencephalon | 30 µM, brain region: DC1 | 30 µM, brain region: DC2 | 30 µM, brain region: DC3 | 30 µM, brain region: LC | 30 µM, brain region: MO | 30 µM, brain region: Pretectum
16.7%: 10 µM, brain region: DC 4,5,6 | 30 µM, brain region: DC 4,5,6 | 30 µM, brain region: telencephalon
